The list shows a part of the results.
Assays:
Assay in all cases: log2 fold change, soluble protein after heating vs DMSO (PISA); higher = thermal stabilisation; K562 lysate, 10 uM; active = over 0.2 and 3.5 SD of the protein, either way, in both replicates (recomputed)
erlotinib = compound: C#Cc1cccc(Nc2ncnc3cc(OCCOC)c(OCCOC)cc23)c1 [erlotinib]
How it was run: (§1)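 Quantification was by TMTpro 16plex LC-MS/MS with equalised channel sums, applied to the supernatant after 21,000xg for 90 min. Samples were crude K562 extract at 1 mg/mL protein in PBS pH 7.4 with 1 mM MgCl2, treated with 10 μM compound for 30 min, heated for 3 min across 48°C-58°C, pooled and brought to 0.5% NP-40 at 4°C. Values are log-two fold changes in thermal stability relative to solvent controls, from duplicates.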

Amino acid sequences for entries named in this document (tags omitted). A change or cut given only in a name is not applied to a line headed by its entry.
UniProt O00584, whole entry, looked up: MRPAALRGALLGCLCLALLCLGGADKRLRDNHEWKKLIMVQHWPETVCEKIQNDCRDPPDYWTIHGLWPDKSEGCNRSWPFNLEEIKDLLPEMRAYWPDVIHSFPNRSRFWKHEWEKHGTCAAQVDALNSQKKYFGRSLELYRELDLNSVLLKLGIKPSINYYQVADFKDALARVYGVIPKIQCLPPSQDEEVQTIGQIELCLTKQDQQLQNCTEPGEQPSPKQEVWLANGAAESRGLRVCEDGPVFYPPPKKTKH
UniProt Q96AT9: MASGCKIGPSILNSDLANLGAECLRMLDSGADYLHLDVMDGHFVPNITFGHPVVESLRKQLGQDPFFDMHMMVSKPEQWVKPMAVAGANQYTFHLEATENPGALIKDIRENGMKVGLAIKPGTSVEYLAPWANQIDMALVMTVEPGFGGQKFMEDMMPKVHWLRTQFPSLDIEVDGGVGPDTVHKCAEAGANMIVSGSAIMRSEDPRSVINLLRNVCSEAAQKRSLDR
UniProt Q5VTB9: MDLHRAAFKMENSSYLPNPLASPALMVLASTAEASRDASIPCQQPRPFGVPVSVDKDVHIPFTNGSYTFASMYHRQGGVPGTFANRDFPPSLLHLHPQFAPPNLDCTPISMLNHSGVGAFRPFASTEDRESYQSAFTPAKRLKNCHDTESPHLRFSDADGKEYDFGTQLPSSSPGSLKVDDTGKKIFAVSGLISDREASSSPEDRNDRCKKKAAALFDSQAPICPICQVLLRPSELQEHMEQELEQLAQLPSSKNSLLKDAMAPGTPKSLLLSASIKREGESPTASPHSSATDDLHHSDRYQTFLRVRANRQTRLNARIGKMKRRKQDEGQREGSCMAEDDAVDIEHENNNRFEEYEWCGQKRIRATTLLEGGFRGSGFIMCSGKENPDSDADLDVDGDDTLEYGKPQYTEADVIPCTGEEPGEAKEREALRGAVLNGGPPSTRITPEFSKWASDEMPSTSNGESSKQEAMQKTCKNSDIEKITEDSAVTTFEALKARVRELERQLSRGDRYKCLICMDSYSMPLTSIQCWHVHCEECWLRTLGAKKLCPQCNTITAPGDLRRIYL
UniProt P35244: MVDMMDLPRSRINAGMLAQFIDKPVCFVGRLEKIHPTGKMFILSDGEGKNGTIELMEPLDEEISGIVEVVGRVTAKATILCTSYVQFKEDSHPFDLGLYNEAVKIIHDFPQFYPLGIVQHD
UniProt O75150, whole entry, looked up: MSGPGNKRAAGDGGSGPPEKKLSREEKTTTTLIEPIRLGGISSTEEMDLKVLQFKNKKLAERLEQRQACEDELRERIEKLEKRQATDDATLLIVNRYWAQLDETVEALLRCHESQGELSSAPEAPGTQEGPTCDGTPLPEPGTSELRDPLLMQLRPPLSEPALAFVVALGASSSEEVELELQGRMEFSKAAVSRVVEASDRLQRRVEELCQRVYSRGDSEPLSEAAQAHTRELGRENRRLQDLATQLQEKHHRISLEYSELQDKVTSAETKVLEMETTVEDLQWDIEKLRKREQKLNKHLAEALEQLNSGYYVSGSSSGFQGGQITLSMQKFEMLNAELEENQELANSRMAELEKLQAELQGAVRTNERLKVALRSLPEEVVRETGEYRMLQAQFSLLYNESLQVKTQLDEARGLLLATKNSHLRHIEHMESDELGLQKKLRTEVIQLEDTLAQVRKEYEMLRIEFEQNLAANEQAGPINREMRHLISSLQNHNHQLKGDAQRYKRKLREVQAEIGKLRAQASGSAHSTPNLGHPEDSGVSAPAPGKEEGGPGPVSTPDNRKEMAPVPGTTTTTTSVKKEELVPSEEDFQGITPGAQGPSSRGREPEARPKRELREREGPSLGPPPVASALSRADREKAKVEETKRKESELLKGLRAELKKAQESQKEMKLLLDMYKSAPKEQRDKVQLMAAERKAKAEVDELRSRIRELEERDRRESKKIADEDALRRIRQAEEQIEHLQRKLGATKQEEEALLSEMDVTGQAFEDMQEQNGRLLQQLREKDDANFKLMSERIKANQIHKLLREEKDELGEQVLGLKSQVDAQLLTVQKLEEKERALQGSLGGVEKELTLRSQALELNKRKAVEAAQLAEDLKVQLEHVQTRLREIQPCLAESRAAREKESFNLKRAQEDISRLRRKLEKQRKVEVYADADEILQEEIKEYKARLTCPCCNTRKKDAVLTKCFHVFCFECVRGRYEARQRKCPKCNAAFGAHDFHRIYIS
UniProt Q15287: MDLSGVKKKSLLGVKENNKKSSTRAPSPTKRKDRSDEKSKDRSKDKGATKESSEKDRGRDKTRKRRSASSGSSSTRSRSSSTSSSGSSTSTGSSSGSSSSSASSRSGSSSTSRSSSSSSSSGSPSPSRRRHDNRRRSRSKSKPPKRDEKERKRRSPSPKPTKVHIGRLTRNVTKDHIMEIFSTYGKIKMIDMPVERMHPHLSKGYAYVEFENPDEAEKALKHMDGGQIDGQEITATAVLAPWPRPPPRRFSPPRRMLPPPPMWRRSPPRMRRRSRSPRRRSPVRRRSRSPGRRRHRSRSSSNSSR
UniProt Q13464: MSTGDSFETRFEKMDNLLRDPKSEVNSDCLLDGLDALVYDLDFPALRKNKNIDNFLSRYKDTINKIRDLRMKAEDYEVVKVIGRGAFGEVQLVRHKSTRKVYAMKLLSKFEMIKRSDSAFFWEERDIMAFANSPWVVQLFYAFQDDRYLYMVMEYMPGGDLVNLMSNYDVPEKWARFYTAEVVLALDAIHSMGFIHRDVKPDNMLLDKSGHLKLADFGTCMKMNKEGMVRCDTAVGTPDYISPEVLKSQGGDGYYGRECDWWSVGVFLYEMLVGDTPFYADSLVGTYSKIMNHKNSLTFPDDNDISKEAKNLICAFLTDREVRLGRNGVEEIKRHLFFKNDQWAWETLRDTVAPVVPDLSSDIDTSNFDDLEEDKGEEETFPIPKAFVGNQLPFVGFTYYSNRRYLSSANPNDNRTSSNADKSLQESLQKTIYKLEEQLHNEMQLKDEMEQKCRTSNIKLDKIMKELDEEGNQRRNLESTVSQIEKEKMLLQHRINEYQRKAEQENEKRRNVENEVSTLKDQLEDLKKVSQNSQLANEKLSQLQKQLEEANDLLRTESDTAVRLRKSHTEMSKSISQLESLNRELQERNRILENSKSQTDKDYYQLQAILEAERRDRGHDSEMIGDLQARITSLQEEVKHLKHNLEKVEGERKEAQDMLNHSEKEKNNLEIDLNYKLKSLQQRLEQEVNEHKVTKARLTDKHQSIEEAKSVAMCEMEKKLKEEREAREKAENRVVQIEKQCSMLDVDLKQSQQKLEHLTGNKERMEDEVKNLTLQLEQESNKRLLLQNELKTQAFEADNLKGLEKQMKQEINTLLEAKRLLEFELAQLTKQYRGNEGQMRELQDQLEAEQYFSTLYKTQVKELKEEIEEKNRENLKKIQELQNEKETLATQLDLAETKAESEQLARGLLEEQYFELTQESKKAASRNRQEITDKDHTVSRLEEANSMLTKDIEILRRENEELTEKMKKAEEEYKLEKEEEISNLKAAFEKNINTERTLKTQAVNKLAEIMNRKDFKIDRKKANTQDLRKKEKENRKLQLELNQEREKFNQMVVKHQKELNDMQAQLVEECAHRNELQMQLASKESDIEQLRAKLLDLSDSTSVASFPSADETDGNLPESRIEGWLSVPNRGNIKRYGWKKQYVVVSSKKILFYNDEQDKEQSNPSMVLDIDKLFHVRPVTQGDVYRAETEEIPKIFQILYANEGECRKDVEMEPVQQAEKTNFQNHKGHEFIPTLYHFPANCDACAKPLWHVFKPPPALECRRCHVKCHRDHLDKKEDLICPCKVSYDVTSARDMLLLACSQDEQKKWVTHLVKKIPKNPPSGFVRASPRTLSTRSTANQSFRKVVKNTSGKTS
UniProt Q8IXI1, whole entry, looked up: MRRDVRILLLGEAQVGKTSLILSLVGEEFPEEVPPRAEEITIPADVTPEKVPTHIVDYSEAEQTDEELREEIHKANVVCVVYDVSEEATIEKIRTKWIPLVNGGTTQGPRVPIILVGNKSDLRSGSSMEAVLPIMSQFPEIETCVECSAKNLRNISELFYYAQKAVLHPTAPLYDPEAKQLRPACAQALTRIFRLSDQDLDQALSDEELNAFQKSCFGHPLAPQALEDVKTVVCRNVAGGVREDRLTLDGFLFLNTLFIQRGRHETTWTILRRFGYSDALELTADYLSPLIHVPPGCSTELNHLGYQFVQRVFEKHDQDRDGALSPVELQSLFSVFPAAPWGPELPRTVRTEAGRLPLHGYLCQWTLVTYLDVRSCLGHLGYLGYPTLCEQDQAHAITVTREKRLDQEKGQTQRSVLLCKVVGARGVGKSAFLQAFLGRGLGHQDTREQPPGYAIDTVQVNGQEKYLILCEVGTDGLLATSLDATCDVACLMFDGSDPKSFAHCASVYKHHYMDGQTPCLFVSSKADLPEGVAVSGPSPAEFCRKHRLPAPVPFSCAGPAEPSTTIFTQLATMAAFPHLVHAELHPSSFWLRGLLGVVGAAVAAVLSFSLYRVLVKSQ
UniProt Q01974, whole entry, looked up: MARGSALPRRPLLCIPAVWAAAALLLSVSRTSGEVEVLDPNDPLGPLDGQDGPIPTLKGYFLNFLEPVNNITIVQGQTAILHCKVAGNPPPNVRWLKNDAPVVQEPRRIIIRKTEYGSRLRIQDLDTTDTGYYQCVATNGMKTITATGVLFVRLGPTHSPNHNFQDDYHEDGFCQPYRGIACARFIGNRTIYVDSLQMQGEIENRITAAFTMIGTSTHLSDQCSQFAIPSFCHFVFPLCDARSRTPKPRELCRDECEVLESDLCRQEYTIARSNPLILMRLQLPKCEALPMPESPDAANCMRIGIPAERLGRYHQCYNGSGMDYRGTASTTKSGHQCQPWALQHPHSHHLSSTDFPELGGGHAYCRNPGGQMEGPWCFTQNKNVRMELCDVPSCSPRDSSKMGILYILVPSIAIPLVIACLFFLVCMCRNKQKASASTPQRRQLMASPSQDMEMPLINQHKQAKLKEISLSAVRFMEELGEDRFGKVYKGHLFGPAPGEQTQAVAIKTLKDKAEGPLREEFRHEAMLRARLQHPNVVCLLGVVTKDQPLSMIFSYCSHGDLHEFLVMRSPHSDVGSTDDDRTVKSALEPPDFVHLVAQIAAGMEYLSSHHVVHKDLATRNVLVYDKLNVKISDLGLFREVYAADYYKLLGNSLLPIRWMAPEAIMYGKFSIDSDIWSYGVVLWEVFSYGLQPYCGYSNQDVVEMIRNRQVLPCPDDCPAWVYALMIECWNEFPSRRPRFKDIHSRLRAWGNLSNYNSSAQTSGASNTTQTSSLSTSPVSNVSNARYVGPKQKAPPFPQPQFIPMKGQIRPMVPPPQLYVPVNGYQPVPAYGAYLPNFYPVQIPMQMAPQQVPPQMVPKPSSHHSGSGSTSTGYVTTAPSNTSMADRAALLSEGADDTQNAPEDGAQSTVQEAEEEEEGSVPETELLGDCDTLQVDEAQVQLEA
UniProt Q8IXW5, whole entry, looked up: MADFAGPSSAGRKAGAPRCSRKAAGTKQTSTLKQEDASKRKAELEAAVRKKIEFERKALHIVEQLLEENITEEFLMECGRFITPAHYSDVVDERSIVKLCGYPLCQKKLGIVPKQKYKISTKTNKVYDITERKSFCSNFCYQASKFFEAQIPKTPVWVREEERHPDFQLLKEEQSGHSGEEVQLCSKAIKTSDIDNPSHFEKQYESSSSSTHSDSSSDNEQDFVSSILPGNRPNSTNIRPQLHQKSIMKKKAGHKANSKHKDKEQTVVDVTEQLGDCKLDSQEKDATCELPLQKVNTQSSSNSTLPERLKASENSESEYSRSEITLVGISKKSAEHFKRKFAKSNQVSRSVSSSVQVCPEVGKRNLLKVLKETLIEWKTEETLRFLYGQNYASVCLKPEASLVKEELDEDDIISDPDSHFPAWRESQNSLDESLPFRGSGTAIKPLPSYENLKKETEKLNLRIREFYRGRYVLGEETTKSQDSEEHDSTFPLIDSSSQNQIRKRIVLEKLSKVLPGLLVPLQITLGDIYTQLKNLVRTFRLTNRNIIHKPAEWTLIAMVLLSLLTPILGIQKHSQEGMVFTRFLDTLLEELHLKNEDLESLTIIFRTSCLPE
UniProt P61586, whole entry, looked up: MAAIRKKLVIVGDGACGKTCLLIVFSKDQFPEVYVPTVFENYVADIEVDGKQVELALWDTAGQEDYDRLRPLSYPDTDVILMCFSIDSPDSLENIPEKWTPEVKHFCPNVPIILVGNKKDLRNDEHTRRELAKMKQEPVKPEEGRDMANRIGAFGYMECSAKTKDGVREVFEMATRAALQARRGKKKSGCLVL

[1] = compound: C/C(=N\NC(=O)C1=CC(=CC=C1)S(=O)(=O)N2CCOCC2)/C3=C(C=CC(=C3)Cl)O
How it was run: as §1

[2] = compound: C1=CC(=CC=C1C2=NC3=C(N2)C=C(C=C3)C(=O)N)OC4=CC=C(C=C4)Cl
How it was run: as §1

[3] = compound: C1=CC2=C(C=CC(=C2)/C=C\3/C(=O)NC(=NCC4=CC=CS4)S3)N=C1
How it was run: as §1

[4] = compound: C1=CC2=NC=CN=C2C=C1/C=C/3\C(=O)NC(=O)S3
How it was run: as §1

[5] = compound: C1=CC=C(C=C1)C2=NC(=C(N2)C3=CC=NC=C3)C4=CC(=C(C=C4)Cl)O
How it was run: as §1

[6] = compound: C1=CC=C2C(=C1)C3=NNC4=CC=CC(=C43)C2=O
How it was run: as §1

[7] = compound: C1CCN(C1)C(=O)NC2=CC=CC(=C2)NC3=NC=C(C(=N3)NCCC4=CN=CN4)Br
How it was run: as §1

[8] = compound: C1CN(CCC1(CC2=CC=C(C=C2)Cl)N)C3=NC=NC4=C3C=CN4
How it was run: as §1

IRAK-1-4 Inhibitor I = compound: C1COCCN1CCN2C3=CC=CC=C3N=C2NC(=O)C4=CC(=CC=C4)[N+](=O)[O-] [IRAK-1-4 Inhibitor I]
How it was run: as §1

ibrutinib = compound: C=CC(=O)N1CCC[C@@H](n2nc(-c3ccc(Oc4ccccc4)cc3)c3c(N)ncnc32)C1 [ibrutinib]
How it was run: as §1

[9] = compound: CC(=O)c1cnc2ccc(-c3cc(Cl)c(O)c(Cl)c3)nc2c1N[C@H]1CC[C@H](CN(C)C)CC1
How it was run: as §1

ralimetinib = compound: CC(C)(C)Cn1c(N)nc2ccc(-c3[nH]c(C(C)(C)C)nc3-c3ccc(F)cc3)nc21 [ralimetinib]
How it was run: as §1

[10] = compound: CC(C)(O)CC(=O)NCCn1ccc2ncnc(Nc3ccc(Oc4cccc(C(F)(F)F)c4)c(Cl)c3)c21
How it was run: as §1

[11] = compound: CC(C)C1=C2N=C(C=C(N2N=C1)NCC3=CC=CC=C3)NCCCCCCN
How it was run: as §1

[12] = compound: CC1=C(C(CC(=O)N1)C2=CC=C(C=C2)C(F)(F)F)C(=O)NC3=C(C=C4C(=C3)C=NN4)F
How it was run: as §1

[13] = compound: CC1=C(C2=C(C=C1)C(=O)C3=CC=CC=C3N2CCCN)C
How it was run: as §1

[14] = compound: CC1=C(C=C(C=C1)NC(=O)C2=CC(=CC=C2)C(C)(C)C#N)NC3=CC4=C(C=C3)N=CN(C4=O)C
How it was run: as §1

[15] = compound: CC1=C(C=C(C=C1)NC(=O)C2=CC(=CC=C2)N(C)C)NC(=O)C3=CC=C(C=C3)O
How it was run: as §1

[16] = compound: CC1=CC=C(C=C1)SC2=C3C=C(SC3=CN=C2)C(=O)N
How it was run: as §1

Measured: log2 fold change

RPL3 (UniProt P39023)
inactive: erlotinib -0.035 | [1] -0.043 | [2] -0.046 | [3] 0.033 | [4] 0 | [5] 0.016 | [6] 0.067 | [7] 0.036 | [8] -0.035 | IRAK-1-4 Inhibitor I -0.012 | ibrutinib 0.006 | [9] 0.018 | ralimetinib 0.004 | [10] 0.02 | [11] -0.011 | [12] -0.014 | [13] -0.009 | [14] -0.051 | [15] 0.008 | [16] 0.041

RPL12 (UniProt P30050)
inactive: erlotinib 0.017 | [1] -0.01 | [2] 0.011 | [3] -0.025 | [4] -0.021 | [5] -0.004 | [6] 0.033 | [7] 0.003 | [8] -0.022 | IRAK-1-4 Inhibitor I 0.019 | ibrutinib -0.035 | [9] 0.004 | ralimetinib -0.021 | [10] -0.074 | [11] 0.042 | [12] -0.051 | [13] 0.004 | [14] 0.045 | [15] 0.006 | [16] 0.038

RPL18 (UniProt Q07020)
inactive: erlotinib -0.032 | [1] -0.094 | [2] 0.026 | [3] -0.01 | [4] -0.045 | [5] 0 | [6] -0.005 | [7] -0.023 | [8] -0.03 | IRAK-1-4 Inhibitor I -0.018 | ibrutinib -0.016 | [9] -0.017 | ralimetinib -0.044 | [10] -0.002 | [11] 0.011 | [12] -0.036 | [13] -0.006 | [14] -0.014 | [15] 0.03 | [16] 0.016

RNASET2 (UniProt O00584)
inactive: erlotinib 0.003 | [1] 0.016 | [2] 0.024 | [3] -0.05 | [4] -0.017 | [5] -0.02 | [6] 0.009 | [7] -0.002 | [8] -0.001 | IRAK-1-4 Inhibitor I 0.025 | ibrutinib 0.035 | [9] -0.021 | ralimetinib -0.012 | [10] -0.015 | [11] -0.014 | [12] 0.016 | [13] -0.01 | [14] -0.01 | [15] 0.015 | [16] -0.003

RPE (UniProt Q96AT9)
inactive: erlotinib 0.005 | [1] -0.053 | [2] 0.065 | [3] -0.008 | [4] -0.115 | [5] -0.006 | [6] 0.037 | [7] -0.108 | [8] 0.041 | IRAK-1-4 Inhibitor I 0.05 | ibrutinib -0.186 | [9] -0.027 | ralimetinib 0.007 | [10] -0.042 | [11] -0.015 | [12] -0.015 | [13] -0.019 | [14] 0.022 | [15] -0.004 | [16] 0.084

RNF213, A0A0A0MTC1
inactive: erlotinib 0.041 | [1] 0.004 | [2] 0 | [3] 0.042 | [4] 0.015 | [5] 0.021 | [6] -0.045 | [7] -0.005 | [8] 0.047 | IRAK-1-4 Inhibitor I 0.025 | ibrutinib 0.015 | [9] 0.006 | ralimetinib -0.001 | [10] -0.014 | [11] 0.007 | [12] 0.014 | [13] 0.008 | [14] 0.014 | [15] 0.042 | [16] 0.022

RNF220 (UniProt Q5VTB9)
inactive: erlotinib 0.016 | [1] -0.272 | [2] 0.022 | [3] 0.004 | [4] -0.02 | [5] -0.023 | [6] -0.018 | [7] -0.01 | [8] -0.018 | IRAK-1-4 Inhibitor I 0.041 | ibrutinib -0.037 | [9] 0.03 | ralimetinib 0.015 | [10] 0.01 | [11] -0.057 | [12] 0.03 | [13] 0.009 | [14] 0.029 | [15] -0.024 | [16] -0.039

Pulled one by one from above (two):
RPL18 (UniProt Q07020)
inactive: erlotinib -0.032 | [1] -0.094 | [2] 0.026 | [3] -0.01 | [4] -0.045 | [5] 0 | [6] -0.005 | [7] -0.023 | [8] -0.03 | IRAK-1-4 Inhibitor I -0.018 | ibrutinib -0.016 | [9] -0.017 | ralimetinib -0.044 | [10] -0.002 | [11] 0.011 | [12] -0.036 | [13] -0.006 | [14] -0.014 | [15] 0.03 | [16] 0.016

RNASET2 (UniProt O00584)
inactive: erlotinib 0.003 | [1] 0.016 | [2] 0.024 | [3] -0.05 | [4] -0.017 | [5] -0.02 | [6] 0.009 | [7] -0.002 | [8] -0.001 | IRAK-1-4 Inhibitor I 0.025 | ibrutinib 0.035 | [9] -0.021 | ralimetinib -0.012 | [10] -0.015 | [11] -0.014 | [12] 0.016 | [13] -0.01 | [14] -0.01 | [15] 0.015 | [16] -0.003

Additional entries follow.

RPA3 (UniProt P35244)
inactive: erlotinib -0.001 | [1] -0.05 | [2] 0.007 | [3] 0.038 | [4] 0.003 | [5] 0.007 | [6] 0.04 | [7] -0.031 | [8] 0.021 | IRAK-1-4 Inhibitor I -0.035 | ibrutinib 0.043 | [9] -0.038 | ralimetinib -0.009 | [10] -0.01 | [11] -0.001 | [12] -0.035 | [13] 0.038 | [14] -0.033 | [15] -0.01 | [16] 0.011

RNF40 (UniProt O75150)
inactive: erlotinib -0.008 | [1] -0.01 | [2] 0.007 | [3] -0.039 | [4] -0.016 | [5] 0.003 | [6] -0.04 | [7] 0.011 | [8] 0.024 | IRAK-1-4 Inhibitor I -0.008 | ibrutinib 0.048 | [9] -0.014 | ralimetinib 0.033 | [10] -0.015 | [11] -0.023 | [12] 0.007 | [13] -0.01 | [14] -0.001 | [15] -0.006 | [16] 0.004

RNPS1 (UniProt Q15287)
inactive: erlotinib -0.008 | [1] -0.105 | [2] 0.025 | [3] -0.151 | [4] -0.005 | [5] -0.006 | [6] 0.027 | [7] -0.016 | [8] -0.073 | IRAK-1-4 Inhibitor I 0.023 | ibrutinib 0.04 | [9] 0.042 | ralimetinib 0.007 | [10] 0.006 | [11] 0.005 | [12] 0.138 | [13] 0.003 | [14] -0.057 | [15] -0.032 | [16] -0.032

ROCK1 (UniProt Q13464)
inactive: erlotinib -0.01 | [1] 0.029 | [2] 0 | [3] 0.075 | [4] -0.036 | [5] -0.004 | [6] -0.041 | [7] 0.008 | [8] 0.075 | IRAK-1-4 Inhibitor I 0.004 | ibrutinib -0.002 | [9] -0.027 | ralimetinib -0.005 | [10] -0.021 | [11] -0.003 | [12] 0.096 | [13] -0.041 | [14] 0.006 | [15] 0.024 | [16] 0.002

RHOT2 (UniProt Q8IXI1)
inactive: erlotinib 0.001 | [1] -0.048 | [2] -0.004 | [3] 0.007 | [4] 0.047 | [5] 0.003 | [6] 0.004 | [7] -0.028 | [8] 0.068 | IRAK-1-4 Inhibitor I 0.051 | ibrutinib -0.005 | [9] -0.014 | ralimetinib 0.006 | [10] -0.007 | [11] -0.032 | [12] -0.093 | [13] 0.012 | [14] 0.028 | [15] 0.01 | [16] 0.021

ROR2 (UniProt Q01974)
inactive: erlotinib 0.007 | [1] -0.017 | [2] 0.005 | [3] 0.027 | [4] -0.019 | [5] -0.002 | [6] -0.042 | [7] 0.01 | [8] 0.074 | IRAK-1-4 Inhibitor I 0 | ibrutinib 0.034 | [9] -0.085 | ralimetinib 0.036 | [10] 0.024 | [11] -0.023 | [12] 0.084 | [13] 0.048 | [14] 0.114 | [15] 0.004 | [16] -0.022

RPL17 isoform 3 (UniProt P18621)
inactive: erlotinib 0.01 | [1] 0.016 | [2] -0.006 | [3] 0.044 | [4] -0.01 | [5] 0.017 | [6] 0.054 | [7] 0.01 | [8] -0.004 | IRAK-1-4 Inhibitor I 0 | ibrutinib 0.017 | [9] 0.015 | ralimetinib -0.014 | [10] -0.013 | [11] -0.008 | [12] -0.028 | [13] -0.022 | [14] -0.007 | [15] 0.003 | [16] 0.012

RPAP2 (UniProt Q8IXW5)
inactive: erlotinib 0.024 | [1] 0.005 | [2] 0.035 | [3] 0.023 | [4] -0.048 | [5] -0.008 | [6] -0.03 | [7] -0.028 | [8] 0.029 | IRAK-1-4 Inhibitor I 0.037 | ibrutinib 0.015 | [9] 0.008 | ralimetinib 0.006 | [10] -0.04 | [11] 0.014 | [12] 0.011 | [13] -0.019 | [14] -0.005 | [15] 0.049 | [16] 0.008

RHOA (UniProt P61586)
inactive: erlotinib 0.001 | [1] -0.093 | [2] 0.049 | [3] -0.093 | [4] -0.09 | [5] 0.064 | [6] 0.038 | [7] -0.022 | [8] 0.039 | IRAK-1-4 Inhibitor I -0.022 | ibrutinib 0.36 | [9] -0.041 | ralimetinib 0.014 | [10] 0.094 | [11] 0.031 | [12] 0.003 | [13] 0.093 | [14] -0.02 | [15] -0.022 | [16] -0.006
